Assay [1] addresses PbaA_(CΔ30), mutant PbaA with deletion of 30 C-terminal amino acid residues (Pyrococcus furiosus). The assay can be described thus: HS-AFM; purified complexes, side views on bare mica, tapping mode, room temperature, 50 mM Tris-HCl pH 8.0, 150 mM NaCl; both purified.
For assay [2] the target is unchanged. The assay can be described thus: cryo-EM structure; purified PbaA_(CΔ30)/PF0014 complex; map EMD-0755 at 7.3 Å with D5 symmetry and 8.5 Å with C1 symmetry; both purified.
For assay [3] the target is unchanged. Briefly: SEC; 400 μM monomer of each protein mixed 1:1, dialyzed 12 h against 50 mM Tris-HCl pH 8.0, 200 mM NaCl, 2 mM DTT; HiTrapQ HP and HiLoad Superdex 200; both purified. For orientation: In gel filtration, larger molecules generally elute earlier.
Assay [4] deals with PbaB from Pyrococcus furiosus (Pyrococcus furiosus). The assay is described as above.

No constants are given. Whether binding was seen depends on the method and setting. For some of these results: Binding calls can cover weak binding; strength is not graded here.

B1: PF0014 from Pyrococcus furiosus (natural protein, UniProt Q8U4R0 1-128, looked up)
chain: MVVEIPLLSGIARRTLDALMRNPIRTVEIRNARNYMTLEKVKEGDLVFLTYESLEDVMRGTEGIIAMVTRMEKSHQRVPWEESDEREISICRVQLKLVGLGRVVEVQEKNGVVFVKVREMLHHEISMG
notes: PF0014, Pyrococcus furiosus, an archaeal protein without functional annotation; Monomeric by HS-AFM when isolated; ten copies in the complex with PbaA
For the molecule B1, the binding entry in assay [1] is reported as “binds”; in assay [2], “binds”; in assay [3], “binds”; in assay [4] it was “no binding (tested: 400 μM monomer of each)”.

The values are drawn from paper PMC6992696, “Supramolecular tholos-like architecture constituted by archaeal proteins without functional annotation” (Scientific Reports, 2020).
